The source of these data is publication PMC11992055, “Identification of RING E3 pseudoligases in the TRIM protein family” (Nature Communications, 2025).

For one test, the target named is T1, FLAG-TRIM49 (human) (UniProt P0CI25).
T1 sequence: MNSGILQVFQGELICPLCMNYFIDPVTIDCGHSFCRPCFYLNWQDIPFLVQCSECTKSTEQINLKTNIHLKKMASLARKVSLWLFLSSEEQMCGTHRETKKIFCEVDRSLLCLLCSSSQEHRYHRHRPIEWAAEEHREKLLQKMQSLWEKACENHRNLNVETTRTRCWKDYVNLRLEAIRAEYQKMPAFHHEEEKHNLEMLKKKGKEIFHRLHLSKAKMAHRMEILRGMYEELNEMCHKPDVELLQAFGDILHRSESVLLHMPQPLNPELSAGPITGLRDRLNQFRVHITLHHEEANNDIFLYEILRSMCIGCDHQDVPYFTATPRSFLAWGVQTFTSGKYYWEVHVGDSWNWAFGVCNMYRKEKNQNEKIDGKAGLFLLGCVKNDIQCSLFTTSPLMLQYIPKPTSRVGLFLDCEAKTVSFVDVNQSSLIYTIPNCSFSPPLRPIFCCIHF
Briefly: co-IP; FLAG-tagged and GFP-tagged TRIMs co-expressed in HEK293T; lysis in 0.5% IGEPAL, 150 mM NaCl, 50 mM Tris-HCl pH 7.5, 5 mM MgCl2; anti-FLAG or anti-GFP cross-linked to Protein A/G beads, 2 h 4 °C; western blotting.

Test [1] concerns the target TRIM15 RING domain (residues 2-80) (human) (UniProt Q9C019). Put plainly: SEC-MALS; SEC-MALLS; Superdex 200 Increase 10/300; 120 µl sample at 1–6 mg/ml; 50 mM HEPES pH 7.5, 150 mM NaCl, 0.5 mM TCEP, 3 mM NaN3; 0.5 ml/min; both purified.

No constants are given. Whether binding was seen depends on the method and setting. For some assays here: Binding seen in cells or lysates may run through a third protein. Some results given as binding are weak or reduced against the parent protein; the word gives no strength. For some assays here: Tags and fused reporters may be left off the sequences shown.

B1: GFP-TRIM51 (protein, UniProt Q9BSJ1 1-452)
chain: MNSGILQVFQRALTCPICMNYFLDPVTIDCGHSFCRPCLYLNWQDTAVLAQCSECKKTTRQRNLNTDICLKNMAFIARKASLRQFLSSEEQICGMHRETKKMFCEVDKSLLCLPCSNSQEHRNHIHCPIEWAAEERREELLKKMQSLWEKACENLRNLNMETTRTRCWKDYVSLRIEAIRAEYQKMPAFLHEEEQHHLERLRKEGEDIFQQLNESKARMEHSRELLRGMYEDLKQMCHKADVELLQAFGDILHRYESLLLQVSEPVNPELSAGPITGLLDSLSGFRVDFTLQPERANSHIFLCGDLRSMNVGCDPQDDPDITGKSECFLVWGAQAFTSGKYYWEVHMGDSWNWAFGVCNNYWKEKRQNDKIDGEEGLFLLGCVKEDTHCSLFTTSPLVVQYVPRPTSTVGLFLDCEGRTVSFVDVDQSSLIYTIPNCSFSPPLRPIFCCSHF
As for B1, the binding result with FLAG-TRIM49 (human) is “binds”.

B2: TRIM15 RING domain (residues 2-80) (domain or fragment, UniProt Q9C019 2-80)
chain: PATPSLKVVHELPACTLCAGPLEDAVTIPCGHTFCRLCLPALSQMGAQSSGKILLCPLCQEEEQAETPMAPVPLGPLGE
As to B2, the binding result in test [1] is on record as “no binding (tested: 1–6 mg/ml)”.
